From publication PMC11267380, “USP25 Elevates SHLD2‐Mediated DNA Double‐Strand Break Repair and Regulates Chemoresponse in Cancer” (Advanced Science, 2024)
Results are given in words; binding and its absence hold for the method and conditions named. In cells and extracts the contact can be indirect. Some binding calls cover weakened binding; strength is not graded here. For some assays here: Where a sequence is shown, tags or fusion partners need not be part of it. Values belong to the substance of their own block, whether it stands above or below them.

By UniProt entry, the sequences of proteins in these tests, tags left out.
UniProt Q9UHP3: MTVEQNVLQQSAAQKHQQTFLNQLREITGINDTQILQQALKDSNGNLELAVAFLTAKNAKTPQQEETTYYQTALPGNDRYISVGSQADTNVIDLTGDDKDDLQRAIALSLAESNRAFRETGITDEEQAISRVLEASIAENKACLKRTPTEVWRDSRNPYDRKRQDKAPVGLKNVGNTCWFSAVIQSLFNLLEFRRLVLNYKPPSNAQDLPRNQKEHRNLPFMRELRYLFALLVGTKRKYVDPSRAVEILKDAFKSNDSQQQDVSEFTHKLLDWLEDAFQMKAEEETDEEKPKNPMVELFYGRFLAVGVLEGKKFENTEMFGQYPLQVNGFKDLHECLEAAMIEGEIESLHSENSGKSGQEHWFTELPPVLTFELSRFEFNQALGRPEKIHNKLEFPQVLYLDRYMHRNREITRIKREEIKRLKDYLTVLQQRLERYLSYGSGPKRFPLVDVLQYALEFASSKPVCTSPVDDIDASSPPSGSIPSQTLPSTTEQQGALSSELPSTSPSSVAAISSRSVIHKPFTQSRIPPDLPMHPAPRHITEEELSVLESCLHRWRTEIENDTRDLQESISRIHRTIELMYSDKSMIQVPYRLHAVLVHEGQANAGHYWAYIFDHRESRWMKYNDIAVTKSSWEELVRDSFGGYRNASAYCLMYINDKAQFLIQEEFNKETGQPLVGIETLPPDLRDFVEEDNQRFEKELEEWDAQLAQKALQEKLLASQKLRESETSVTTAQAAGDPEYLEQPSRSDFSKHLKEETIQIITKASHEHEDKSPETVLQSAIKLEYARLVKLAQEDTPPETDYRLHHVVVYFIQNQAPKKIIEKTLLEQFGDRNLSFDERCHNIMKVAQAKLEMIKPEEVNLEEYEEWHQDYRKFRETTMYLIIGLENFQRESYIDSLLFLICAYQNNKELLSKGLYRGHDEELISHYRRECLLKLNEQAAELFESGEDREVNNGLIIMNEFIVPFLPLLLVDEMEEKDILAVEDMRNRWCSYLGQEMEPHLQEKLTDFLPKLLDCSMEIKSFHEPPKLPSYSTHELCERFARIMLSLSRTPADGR
UniProt Q12888: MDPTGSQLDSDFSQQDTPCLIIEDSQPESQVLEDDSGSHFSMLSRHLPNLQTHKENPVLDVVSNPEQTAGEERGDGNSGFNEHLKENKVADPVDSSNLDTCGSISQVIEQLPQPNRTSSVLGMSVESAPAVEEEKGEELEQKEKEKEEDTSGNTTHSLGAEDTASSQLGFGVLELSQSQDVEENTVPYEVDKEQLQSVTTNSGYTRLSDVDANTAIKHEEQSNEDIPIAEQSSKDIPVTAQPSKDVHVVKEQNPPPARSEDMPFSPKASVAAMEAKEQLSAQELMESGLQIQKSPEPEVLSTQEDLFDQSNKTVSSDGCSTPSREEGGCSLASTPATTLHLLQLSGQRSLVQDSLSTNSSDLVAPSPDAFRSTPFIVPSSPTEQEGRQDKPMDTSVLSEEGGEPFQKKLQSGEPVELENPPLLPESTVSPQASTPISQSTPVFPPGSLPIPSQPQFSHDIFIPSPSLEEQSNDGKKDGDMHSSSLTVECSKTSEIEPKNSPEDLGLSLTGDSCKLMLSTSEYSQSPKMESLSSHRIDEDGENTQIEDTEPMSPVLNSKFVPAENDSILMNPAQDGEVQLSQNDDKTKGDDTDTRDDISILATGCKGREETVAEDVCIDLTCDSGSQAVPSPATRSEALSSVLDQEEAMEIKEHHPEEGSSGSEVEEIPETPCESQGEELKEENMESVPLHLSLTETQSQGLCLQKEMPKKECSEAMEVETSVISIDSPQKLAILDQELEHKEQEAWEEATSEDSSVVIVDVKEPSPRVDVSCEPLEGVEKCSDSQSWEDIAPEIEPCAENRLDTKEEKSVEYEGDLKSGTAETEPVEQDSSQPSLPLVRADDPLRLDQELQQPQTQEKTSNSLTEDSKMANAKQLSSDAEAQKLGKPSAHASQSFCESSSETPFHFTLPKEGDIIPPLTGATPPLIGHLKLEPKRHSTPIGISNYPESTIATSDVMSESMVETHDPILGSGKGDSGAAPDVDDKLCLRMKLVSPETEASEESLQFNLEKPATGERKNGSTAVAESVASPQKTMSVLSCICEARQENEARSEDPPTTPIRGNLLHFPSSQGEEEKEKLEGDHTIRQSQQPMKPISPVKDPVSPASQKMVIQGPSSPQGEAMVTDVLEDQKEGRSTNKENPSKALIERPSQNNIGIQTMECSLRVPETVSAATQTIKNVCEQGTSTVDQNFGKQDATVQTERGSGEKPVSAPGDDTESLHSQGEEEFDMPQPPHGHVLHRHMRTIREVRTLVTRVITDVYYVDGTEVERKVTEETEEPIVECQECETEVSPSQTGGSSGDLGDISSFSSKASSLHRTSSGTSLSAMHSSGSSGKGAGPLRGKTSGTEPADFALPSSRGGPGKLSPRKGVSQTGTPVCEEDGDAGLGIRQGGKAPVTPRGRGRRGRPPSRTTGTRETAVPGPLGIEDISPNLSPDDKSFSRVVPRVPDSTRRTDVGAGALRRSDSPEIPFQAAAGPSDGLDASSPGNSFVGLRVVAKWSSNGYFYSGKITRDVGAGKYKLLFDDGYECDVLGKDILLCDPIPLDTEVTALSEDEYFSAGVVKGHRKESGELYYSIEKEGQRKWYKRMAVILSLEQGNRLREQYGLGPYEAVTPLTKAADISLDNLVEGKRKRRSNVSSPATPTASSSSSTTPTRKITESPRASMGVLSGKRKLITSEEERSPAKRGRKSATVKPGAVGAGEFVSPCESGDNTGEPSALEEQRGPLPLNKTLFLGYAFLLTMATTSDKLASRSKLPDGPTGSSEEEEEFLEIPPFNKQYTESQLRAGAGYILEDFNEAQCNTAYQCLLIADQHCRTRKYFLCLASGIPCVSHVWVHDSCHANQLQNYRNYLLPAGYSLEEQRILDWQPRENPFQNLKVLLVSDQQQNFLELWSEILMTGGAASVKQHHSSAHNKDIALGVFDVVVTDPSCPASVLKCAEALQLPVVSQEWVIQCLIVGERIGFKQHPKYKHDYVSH
UniProt Q5UIP0: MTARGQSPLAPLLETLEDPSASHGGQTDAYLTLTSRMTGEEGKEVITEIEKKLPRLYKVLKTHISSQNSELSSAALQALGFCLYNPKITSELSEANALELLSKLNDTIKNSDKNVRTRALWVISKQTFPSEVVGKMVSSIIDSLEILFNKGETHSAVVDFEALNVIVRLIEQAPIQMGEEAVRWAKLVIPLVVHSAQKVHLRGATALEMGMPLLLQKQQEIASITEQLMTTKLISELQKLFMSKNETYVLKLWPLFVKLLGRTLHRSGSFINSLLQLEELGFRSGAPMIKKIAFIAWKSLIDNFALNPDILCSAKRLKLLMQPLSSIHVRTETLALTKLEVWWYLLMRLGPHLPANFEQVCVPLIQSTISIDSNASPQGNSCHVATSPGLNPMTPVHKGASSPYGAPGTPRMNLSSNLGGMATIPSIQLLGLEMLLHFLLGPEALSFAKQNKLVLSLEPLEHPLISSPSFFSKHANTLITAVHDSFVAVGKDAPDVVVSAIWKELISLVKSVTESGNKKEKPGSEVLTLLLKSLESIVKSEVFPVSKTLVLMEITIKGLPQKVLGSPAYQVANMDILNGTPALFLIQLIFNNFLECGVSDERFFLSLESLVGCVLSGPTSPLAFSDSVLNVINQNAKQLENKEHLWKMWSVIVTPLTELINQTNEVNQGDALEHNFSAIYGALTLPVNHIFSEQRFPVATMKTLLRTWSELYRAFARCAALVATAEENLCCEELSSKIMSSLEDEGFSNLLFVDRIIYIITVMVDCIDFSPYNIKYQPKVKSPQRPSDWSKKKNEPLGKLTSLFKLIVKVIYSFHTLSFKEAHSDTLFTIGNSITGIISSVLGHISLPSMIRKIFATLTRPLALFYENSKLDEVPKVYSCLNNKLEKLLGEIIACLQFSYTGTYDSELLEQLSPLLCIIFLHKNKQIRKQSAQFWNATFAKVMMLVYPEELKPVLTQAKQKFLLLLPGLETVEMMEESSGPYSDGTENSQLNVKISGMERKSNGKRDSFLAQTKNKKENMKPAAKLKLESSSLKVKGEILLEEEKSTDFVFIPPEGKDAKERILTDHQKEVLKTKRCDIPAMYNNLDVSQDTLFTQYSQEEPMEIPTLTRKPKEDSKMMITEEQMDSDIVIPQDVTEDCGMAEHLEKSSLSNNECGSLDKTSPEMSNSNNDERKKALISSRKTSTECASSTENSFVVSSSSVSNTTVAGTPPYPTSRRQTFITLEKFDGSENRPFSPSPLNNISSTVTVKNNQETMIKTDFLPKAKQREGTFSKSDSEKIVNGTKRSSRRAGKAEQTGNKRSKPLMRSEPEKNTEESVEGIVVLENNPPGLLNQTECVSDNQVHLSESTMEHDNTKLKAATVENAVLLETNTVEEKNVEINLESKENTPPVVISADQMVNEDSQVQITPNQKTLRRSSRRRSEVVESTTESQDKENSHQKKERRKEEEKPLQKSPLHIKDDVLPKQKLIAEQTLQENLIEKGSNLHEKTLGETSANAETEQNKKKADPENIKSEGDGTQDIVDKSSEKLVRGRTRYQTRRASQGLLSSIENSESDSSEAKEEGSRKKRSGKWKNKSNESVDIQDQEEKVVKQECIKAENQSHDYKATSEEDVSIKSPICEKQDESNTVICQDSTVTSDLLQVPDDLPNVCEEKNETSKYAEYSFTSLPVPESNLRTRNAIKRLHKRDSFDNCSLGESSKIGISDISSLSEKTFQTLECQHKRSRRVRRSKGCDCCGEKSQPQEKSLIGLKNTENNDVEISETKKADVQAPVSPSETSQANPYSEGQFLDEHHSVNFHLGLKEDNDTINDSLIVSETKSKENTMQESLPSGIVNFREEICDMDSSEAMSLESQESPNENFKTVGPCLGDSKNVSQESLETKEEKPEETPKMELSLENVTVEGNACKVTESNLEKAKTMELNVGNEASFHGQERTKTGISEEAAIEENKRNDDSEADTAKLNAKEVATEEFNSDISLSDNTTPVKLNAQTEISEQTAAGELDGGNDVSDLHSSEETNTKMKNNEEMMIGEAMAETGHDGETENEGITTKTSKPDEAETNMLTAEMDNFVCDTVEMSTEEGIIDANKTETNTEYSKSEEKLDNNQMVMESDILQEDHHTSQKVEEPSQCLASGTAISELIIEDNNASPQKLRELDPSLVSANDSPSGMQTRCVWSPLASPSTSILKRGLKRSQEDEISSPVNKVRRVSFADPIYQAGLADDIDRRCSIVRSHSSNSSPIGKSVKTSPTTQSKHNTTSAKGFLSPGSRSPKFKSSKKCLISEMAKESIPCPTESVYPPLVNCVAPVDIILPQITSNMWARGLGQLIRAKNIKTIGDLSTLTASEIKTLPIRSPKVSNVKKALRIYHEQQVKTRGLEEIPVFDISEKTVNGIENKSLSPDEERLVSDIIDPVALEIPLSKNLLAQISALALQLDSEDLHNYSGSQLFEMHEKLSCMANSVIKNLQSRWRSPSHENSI
UniProt Q14258: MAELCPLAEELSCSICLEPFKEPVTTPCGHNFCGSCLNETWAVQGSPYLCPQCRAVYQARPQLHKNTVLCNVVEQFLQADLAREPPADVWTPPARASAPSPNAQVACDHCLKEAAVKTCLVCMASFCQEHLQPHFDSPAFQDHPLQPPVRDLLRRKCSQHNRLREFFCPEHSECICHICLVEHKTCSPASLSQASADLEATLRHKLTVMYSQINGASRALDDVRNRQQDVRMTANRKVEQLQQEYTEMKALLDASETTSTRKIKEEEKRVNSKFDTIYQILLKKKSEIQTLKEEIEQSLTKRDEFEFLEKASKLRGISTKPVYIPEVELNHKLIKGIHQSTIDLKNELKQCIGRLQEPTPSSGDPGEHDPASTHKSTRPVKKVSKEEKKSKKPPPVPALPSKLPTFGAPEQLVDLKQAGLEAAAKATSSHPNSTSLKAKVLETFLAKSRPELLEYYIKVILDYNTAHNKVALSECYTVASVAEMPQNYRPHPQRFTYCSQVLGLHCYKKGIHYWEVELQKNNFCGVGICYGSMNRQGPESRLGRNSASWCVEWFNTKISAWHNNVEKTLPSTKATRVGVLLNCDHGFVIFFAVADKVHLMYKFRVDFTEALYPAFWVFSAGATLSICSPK

Key:
[1] = molecular target: HA-USP25 (USP25^WT in PLVX-CMV-HA) (UniProt Q9UHP3); test: co-IP; cell lysates on HA resin (HA-USP25), immunoprecipitates blotted for TRIM25, HECTD3, NEDD4L and WWP2
[2] = molecular target: T1, GST-MDC1 FHA-domain (human) (UniProt Q14676); test: pull-down; GST-MDC1 deletions purified on Glutathione-Sepharose beads, incubated 2 h at 4 °C with lysates of HEK293T cells transfected with USP25 and treated with 5-Fu (20 uM) or IR; washed with NETN buffer; western blot; only the target purified
T1 sequence: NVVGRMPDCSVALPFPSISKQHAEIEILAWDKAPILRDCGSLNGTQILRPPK

53BP1 = 53BP1 (UniProt Q12888); test: co-IP; HEK293T cells untreated or treated with 5-Fu (20 uM) or IR; the mediator protein (MDC1) immunoprecipitated and blotted for USP25
[3] = molecular target: MDC1 (endogenous) (human (endogenous in HEK293T)) (UniProt Q14676); test: as above
RIF1 = RIF1 (UniProt Q5UIP0); test: as above

binding [1]: binds
Substance: TRIM25 (from UniProt Q14258 1-630) (enzyme)

binding [2]: no binding
Substance: USP25^WT (transfected, for GST pull-down) (from UniProt Q9UHP3 1-1055) (enzyme)

binding (53BP1): no binding | binding [3]: binds | binding (RIF1): no binding
Substance: USP25 (endogenous) (from UniProt Q9UHP3 1-1055) (enzyme)
